Test results from publication PMC9319012.
These are yes or no findings as the source states them, for the method shown. Binding seen in cells or lysates may run through a third protein. Some binding calls cover weakened binding; strength is not graded here.

Protein sequences, listed by entry. Tags and fused reporters are not part of them.
UniProt Q04206: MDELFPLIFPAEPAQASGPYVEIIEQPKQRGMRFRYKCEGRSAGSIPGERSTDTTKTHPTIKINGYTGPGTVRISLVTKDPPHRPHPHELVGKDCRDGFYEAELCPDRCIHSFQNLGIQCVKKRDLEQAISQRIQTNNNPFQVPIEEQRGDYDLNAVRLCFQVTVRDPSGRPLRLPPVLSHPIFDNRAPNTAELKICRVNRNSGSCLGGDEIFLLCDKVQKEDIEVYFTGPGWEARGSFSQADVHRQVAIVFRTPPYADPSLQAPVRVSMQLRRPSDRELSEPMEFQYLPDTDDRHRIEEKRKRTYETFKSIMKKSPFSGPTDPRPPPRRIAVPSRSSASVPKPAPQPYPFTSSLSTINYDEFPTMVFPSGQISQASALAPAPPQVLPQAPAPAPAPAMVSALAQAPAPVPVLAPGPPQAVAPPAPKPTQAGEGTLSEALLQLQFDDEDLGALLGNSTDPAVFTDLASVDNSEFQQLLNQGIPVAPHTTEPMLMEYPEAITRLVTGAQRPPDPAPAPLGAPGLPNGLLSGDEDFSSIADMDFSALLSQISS
UniProt O15527: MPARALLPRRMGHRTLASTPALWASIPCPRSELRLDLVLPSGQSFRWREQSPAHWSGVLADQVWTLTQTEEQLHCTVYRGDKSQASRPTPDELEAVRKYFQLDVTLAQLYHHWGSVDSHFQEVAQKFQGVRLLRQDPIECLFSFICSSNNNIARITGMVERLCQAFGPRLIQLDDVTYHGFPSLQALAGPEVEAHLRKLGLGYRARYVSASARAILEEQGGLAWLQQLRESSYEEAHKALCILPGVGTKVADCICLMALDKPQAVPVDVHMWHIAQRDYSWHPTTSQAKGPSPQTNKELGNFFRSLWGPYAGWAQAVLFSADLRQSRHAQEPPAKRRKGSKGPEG

Tests used:
[1] = target: RELA proto-oncogene (65 kDa subunit) (human (endogenous in hSAECs)) (UniProt Q04206); experiment: co-IP; lysates of mock- or RSV-infected hSAECs (24 h, MOI = 1); 10 mM HEPES pH 7.4, 50 mM NaCl, 1% Triton X-100, 10% glycerol; IP with anti-OGG1 or anti-RELA Ab overnight at 4 °C, protein G Dynabeads; immunoblot with anti-RELA or anti-OGG1
[2] = target: 8-oxoguanine DNA glycosylase1 (human (endogenous in hSAECs)) (UniProt O15527); experiment: as above
[3] = target: 8-oxoguanine DNA glycosylase1 (human (endogenous in hSAECs)) (UniProt O15527); experiment: proximity ligation; Duolink PLA with anti-RelA and anti-OGG1 antibodies in control or RSV-infected hSAECs; red foci by fluorescence microscopy
FLAG-tagged OGG1 = FLAG-tagged OGG1 (UniProt O15527); experiment: co-IP; lysates of FLAG-OGG1-expressing A549 cells over a time course of RSV infection; capture on anti-FLAG M2 magnetic beads; immunoblot with anti-phospho-Ser536 RELA

8-oxoguanine DNA glycosylase1 (from UniProt O15527 1-345) (enzyme)
binding [1]: binds

RELA proto-oncogene (65 kDa subunit) (from UniProt Q04206 1-551)
binding [2]: binds | binding [3]: binds

Ser 536-phosphorylated RELA (from UniProt Q04206 1-551)
binding (FLAG-tagged OGG1): binds
